Data as given in PubChem BioAssay AID1259308 (NCATS, 2017).
Aim: 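Genes whose loss raises luciferase production in HEK293 cells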 (primary screen). System: human HEK293 embryonic kidney cells stably expressing firefly luciferase (HEK-CMV-Luc2-Hygro). Knock-down reagent: single siRNA against human genes, 0.8 pmol siRNA per well. Time to read-out: 72 h. Measurement: 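Reporter luminescence and viable-cell signal on separate replicate plates, given as percent of non-targeting control and median/MAD z-scores, plus per-cell luciferase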. Reading the numbers: total luciferase, z-score and total luciferase, % of control: higher = more reporter protein produced; luciferase per cell, z-score: higher = more reporter output per viable cell; viable cells, % of control: higher = more viable cells. Rule for the call: 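An siRNA counts as active if its total luciferase robust z-score exceeds 3; genes with two or more such siRNAs out of three were retested with fresh siRNAs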. Meaning of the calls: active = raised luciferase; inactive = no rise.
The deposit covers about 59,000 reagents; shown is a part drawn at random. About 1,510 of all reagents (2.6%) count as active. 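Calls use total luciferase alone and ignore viability, so some active siRNAs may act by altering cell number.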

| target | PubChem SID | total luciferase, z-score | total luciferase, % of control | luciferase per cell, z-score | viable cells, % of control | call |
| --- | --- | --- | --- | --- | --- | --- |
| ATP2B4 (GeneID 493) | SID160721698 | 0.0763 | 83.4 | -0.485 | 106 | inactive |
| ATP2B4 (GeneID 493) | SID160721709 | -0.138 | 79.1 | -0.196 | 93.1 | inactive |
| ATP2B4 (GeneID 493) | SID160721720 | -0.0741 | 80.4 | -1.16 | 122 | inactive |
| PLIN2 (GeneID 123) | SID160714365 | 0.638 | 94.6 | 0.705 | 87.8 | inactive |
| PLIN2 (GeneID 123) | SID160714376 | 0.632 | 94.5 | 0.241 | 99.1 | inactive |
| PLIN2 (GeneID 123) | SID160714387 | -0.328 | 75.4 | -0.75 | 103 | inactive |
| WDR72 (GeneID 256764) | SID160762483 | -0.394 | 74.1 | -0.492 | 94.2 | inactive |
| WDR72 (GeneID 256764) | SID160762484 | -1.56 | 50.8 | -1.77 | 90.3 | inactive |
| WDR72 (GeneID 256764) | SID160762485 | -0.0844 | 80.2 | 0.332 | 82.1 | inactive |
| EPB41L4A (GeneID 64097) | SID160747447 | 0.415 | 90.1 | 0.651 | 84.8 | inactive |
| EPB41L4A (GeneID 64097) | SID160747448 | 0.795 | 97.7 | -0.0231 | 110 | inactive |
| EPB41L4A (GeneID 64097) | SID160747449 | 0.181 | 85.5 | 1.14 | 70.8 | inactive |
| TLX1 (GeneID 3195) | SID160775150 | 0.63 | 94.4 | 0.138 | 102 | inactive |
| TLX1 (GeneID 3195) | SID160775151 | -2.09 | 40.3 | -2.7 | 91.7 | inactive |
| TLX1 (GeneID 3195) | SID160775152 | 1.35 | 109 | 1.38 | 84.5 | inactive |
| LUM (GeneID 4060) | SID160776787 | -0.827 | 65.4 | -0.018 | 73.5 | inactive |
| LUM (GeneID 4060) | SID160776789 | -0.286 | 76.2 | -0.00408 | 85.2 | inactive |
| LUM (GeneID 4060) | SID160776790 | 1.01 | 102 | 0.332 | 104 | inactive |
| HSP90AB1 (GeneID 3326) | SID160775408 | -0.635 | 69.2 | -0.0501 | 78.4 | inactive |
| HSP90AB1 (GeneID 3326) | SID160775412 | -0.268 | 76.5 | -0.301 | 92.6 | inactive |
| HSP90AB1 (GeneID 3326) | SID160775413 | -0.534 | 71.3 | -0.658 | 94.7 | inactive |
| UBE2V1 (GeneID 7335) | SID160718548 | 0.564 | 93.1 | 0.47 | 91.9 | inactive |
| UBE2V1 (GeneID 7335) | SID160718551 | 2.75 | 137 | 1.65 | 98.9 | inactive |
| UBE2V1 (GeneID 7335) | SID160731868 | 1.38 | 109 | 0.665 | 102 | inactive |

Already shown: an excerpt of the list.
| target | PubChem SID | total luciferase, z-score | total luciferase, % of control | luciferase per cell, z-score | viable cells, % of control | call |
| --- | --- | --- | --- | --- | --- | --- |
| HSP90AB1 (GeneID 3326) | SID160775408 | -0.635 | 69.2 | -0.0501 | 78.4 | inactive |
| HSP90AB1 (GeneID 3326) | SID160775412 | -0.268 | 76.5 | -0.301 | 92.6 | inactive |
| HSP90AB1 (GeneID 3326) | SID160775413 | -0.534 | 71.3 | -0.658 | 94.7 | inactive |

The listing continues:
| target | PubChem SID | total luciferase, z-score | total luciferase, % of control | luciferase per cell, z-score | viable cells, % of control | call |
| --- | --- | --- | --- | --- | --- | --- |
| RXFP1 (GeneID 59350) | SID160747024 | -0.165 | 78.6 | -0.572 | 102 | inactive |
| RXFP1 (GeneID 59350) | SID160747025 | 0.756 | 96.9 | 0.225 | 102 | inactive |
| RXFP1 (GeneID 59350) | SID160747026 | 0.24 | 86.7 | 0.169 | 92.6 | inactive |
| MRGPRX1 (GeneID 259249) | SID160730909 | 2.35 | 129 | 1.82 | 88.9 | inactive |
| MRGPRX1 (GeneID 259249) | SID160762607 | 1.95 | 121 | 1.6 | 88.4 | inactive |
| MRGPRX1 (GeneID 259249) | SID160762608 | -0.254 | 76.8 | -0.632 | 101 | inactive |
| AFG2A (GeneID 166378) | SID160760203 | -0.228 | 77.4 | 0.155 | 83 | inactive |
| AFG2A (GeneID 166378) | SID160760204 | -1.01 | 61.8 | -1.49 | 102 | inactive |
| AFG2A (GeneID 166378) | SID160760205 | -0.575 | 70.4 | -1.27 | 110 | inactive |
| KRT36 (GeneID 8689) | SID160720609 | 1.29 | 108 | 0.681 | 101 | inactive |
| KRT36 (GeneID 8689) | SID160720610 | -1.28 | 56.4 | -0.128 | 65.1 | inactive |
| KRT36 (GeneID 8689) | SID160720612 | -0.779 | 66.4 | -0.621 | 87.4 | inactive |
| SLC9C2 (GeneID 284525) | SID160763366 | -1.26 | 56.9 | -1.43 | 92.5 | inactive |
| SLC9C2 (GeneID 284525) | SID160763367 | -0.539 | 71.2 | -0.89 | 101 | inactive |
| SLC9C2 (GeneID 284525) | SID160763368 | 0.848 | 98.7 | 1.39 | 76.6 | inactive |
